Measured values from patent publication US7887833B2, “Amphiphilic compounds and vesicles liposomes for organ-specified drug targeting” (Ben-Gurion University of the Negev Research and Development …, priority 2001, dated 2011).
At least one structure is not confirmed: it was looked up by name or label, or the drawing left a doubt.

Test system: cholinesterases (ChE)
Assay: pH-stat method: hydrolysis of headgroups by cholinesterases of human serum
Type: biochemical
Conditions: 100 mM solutions diluted 100 times, pH 9.0, human serum 0.1 ml, 15 min
Experimental: The ability of cholinesterases (ChE) to hydrolyze Derivatives 1 and 2 was assessed using two methods:
(i) The pH-stat method: Hydrolysis of the acetylcholine ester headgroups of Derivative 1, as well as of acetylcholine (ACh), by cholinesterases (ChE), releases acetic acid into the solution. Hydrolysis of Derivative 2 by ChE releases choline and a free fatty acid. In both cases, the release of acid results in pH drop. The hydrolysis rate of these compounds can be determined by measuring the amount of NaOH needed to neutralize the acid generated during hydrolysis. Three solutions, 100 mM concentration each of acetylcholine (ACh) in water and of Derivatives 1 and 2 in methanol were prepared, then diluted 100 times with water (10 ml), and their pH was adjusted to pH 9.0 using 0.1M NaOH. The pH was monitored until it remained stable for 10 min (baseline). At this stage, human serum (0.1 ml) containing ChE, was added and each of the solutions was titrated with 0.05M NaOH in order to maintain pH 9.0. The amount of the NaOH needed to maintain constant pH was measured during 15 min. […] Thus vesicles prepared from Derivative 1 are expected to disrupt, in presence of ChE, faster than vesicles made from Derivative 2.

SMILES: CC(=O)OCC[N+](C)(C)C [ACh, acetylcholine, reference compound]
- hydrolysis rate (NaOH needed to maintain constant pH): fastest
